Experimental data published in US20200071416A1 (ASTUTE MEDICAL, published 2020).
These are yes or no findings as the source states them, for the method shown. Some binding calls cover weakened binding; strength is not graded here.

Columns and labels:
[1] = molecular target: T1, TIMP-2 region 196…205 (human); experiment: Pepscan ELISA on linear 15-mer TIMP-2 peptides
T1 sequence (peptide): RSDGSCAWYR

[2] = molecular target: T2, TIMP-2 region 33…41 (human); experiment: Pepscan ELISA on linear 15-mer TIMP-2 peptides
T2 sequence (peptide): HPQQAFCNA

B1: antibody 40H2-40K3 (antibody, V domains shown)
VH: QSLEESGGDLVKPEGSLTLTCTASGFTISSNYYMCWVRQAPGKGLEWVACILGGSGTYTYYATWAKGRFTISKTSSTTVTLQMPSLTAADTATYFCARQAPADTYLYGGYGPFNLWGQGTLVTVSS
VL: DIVMTQTPSSVEAAVGGTVTIKCQASESISGWLAWYQQKPGQPPKLLIYRASTLESGVPSRFKGSGSGTEFTLTISDLECADAATYYCQCSYGINGNSEHGNPFGGGTEVVVKR
- binding [1]: binds
- binding [2]: binds
